From PubChem BioAssay AID662 (National Center for Advancing Translational Sciences (NCATS), 2007)
The other results are listed elsewhere or left out. The main result of the screen is listed elsewhere. These columns were measured beside it and carry no call. Compounds called inactive in the main read-out are mostly missing here. Words in brackets tell the shape of the fitted curve; partial curves, single points and poor fits give uncertain potencies.

Assay: Cell signaling CRE-BLA (Fsk stim)
Details: CHO CRE-bla reporter (cAMP response element driving beta-lactamase), forskolin EC10, beta-lactamase ratio; measured here: 460 nm blue channel
In short: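 AC50 values, positive or negative, reflect shifts in EC10 NKH 477-induced CRE-bla reporter activity in CHO cells. Incubation lasted 3 h at 37 °C before CCF4 substrate (2 h, room temperature) and ratiometric 460/530 nm reading.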
In the case of CN1CCc2c(sc(/N=C/c3cccs3)c2C(N)=O)C1, the AC50 is reported as 12.6 µM [rising, partial curve]. With Cc1ccc2c(c1)[nH]c1c(N3CCN(Cc4ccccc4)CC3)ncnc12 the AC50 was 15.8 µM [falling, partial curve]. In the case of CC(=O)c1ccc(OCCCC(=O)OCc2nnc(-c3ccc(Cl)cc3)o2)cc1, the AC50 is reported as 0.316 µM [falling, partial curve]. With O=c1cc(-c2ccccc2)oc2cc(O)cc(O)c12 the AC50 was 10 µM [falling, single point]. For CCn1c2ccccc2c2cc(C3C(C#N)=C(N)Oc4n[nH]c(COC)c43)ccc21 (stereo not drawn), the AC50 was 12.6 µM [rising, partial curve]. With O=C(O)CCC(=O)N1CCc2cc(S(=O)(=O)N3CCCCC3)ccc21 the AC50 was 0.1 µM [falling, full curve, poor fit]. In the case of CS(=O)(=O)N(CC(=O)Nc1cccnc1)c1ccc2c(c1)OCCO2, the AC50 is reported as 25.1 µM [rising, single point]. In the case of CN1CCN(c2ncnc3ccc(-c4cccc(C#N)c4)cc23)CC1, the AC50 is reported as 12.6 µM [rising, partial curve]. For CCNc1nc2c(c(=O)[nH]c(=O)n2C)n1Cc1ccc(F)cc1, the AC50 was 7.94 µM [rising, partial curve]. For CSc1ncnc2c1ncn2CC(=O)[C@H]1CC[C@H]2[C@H]3CCC4=CC(=O)CC[C@@]4(C)[C@@H]3CC[C@@]12C, the AC50 was 5.01 µM [rising, single point]. With Cc1nc2ccccc2c2oc(C(=O)N3CCN(C4CCCCC4)CC3)cc12 the AC50 was 12.6 µM [rising, partial curve]. For O=c1[nH]c(C2CCCN(S(=O)(=O)c3ccc(F)cc3)C2)nc2c1nnn2Cc1ccccc1 (stereo not drawn), the AC50 was 10 µM [rising, partial curve]. With N#Cc1cccc(NC(=O)N2CCC(c3nc4c(nnn4Cc4cccc(Cl)c4)c(=O)[nH]3)CC2)c1 the AC50 was 0.00316 µM [rising, full curve, poor fit]. With O=C(CCCCCn1c(SCC(=O)c2ccccc2)nc2ccccc2c1=O)NCc1ccco1 the AC50 was 3.98 µM [rising, full curve, poor fit]. In the case of Cc1ccc(OCC(=O)Nc2ccc3c(c2)nc(CCN2CCOCC2)n3C)cc1, the AC50 is reported as 12.6 µM [rising, single point]. In the case of COc1ccc(-n2c(=O)c3ccccc3n(CC(=O)NC3CCCCC3)c2=O)c(OC)c1, the AC50 is reported as 0.00794 µM [falling, full curve, poor fit]. In the case of COc1cccc(-c2nn(C)c3sc(C(=O)NCc4ccc5c(c4)OCO5)cc23)c1, the AC50 is reported as 1 µM [rising, full curve]. For O=c1cnc2cnc(Nc3ccccc3)nc2n1Cc1ccc(F)cc1, the AC50 was 25.1 µM [rising, partial curve]. For COc1ccccc1NS(=O)(=O)c1ccc(NC(=O)c2nc3ncccn3n2)cc1, the AC50 was 25.1 µM [rising, single point]. In the case of COc1ccc(CN2CCCC2C(=O)Nc2ccc(OC)c(OC)c2)cc1OC (stereo not drawn), the AC50 is reported as 10 µM [rising, partial curve]. For Cc1ccc(C)c(N2CCN(C(=O)CCNC(=O)Cn3ccc4ccccc4c3=O)CC2)c1, the AC50 was 0.00316 µM [falling, full curve, poor fit]. For COc1ccccc1NC(=O)N(Cc1ccco1)Cc1cc2c(C)ccc(C)c2[nH]c1=O, the AC50 was 12.6 µM [falling, single point]. In the case of COc1ccc(Cl)cc1NC(=O)c1ccoc1C, the AC50 is reported as 0.00316 µM [falling, full curve, poor fit]. For Cc1cc(C)n2nc(SCc3cc(=O)n4c(C)cccc4n3)nc2n1, the AC50 was 1.26 µM [rising, full curve]. In the case of COc1ccc(-c2cc(C(F)(F)F)nc(N3CCOCC3)n2)cc1OC, the AC50 is reported as 5.01 µM [rising, partial curve]. With Cc1nc2sc3c(c2c(=O)[nH]1)CCC3 the AC50 was 12.6 µM [rising, partial curve]. In the case of O=C(NC1CCCc2ccccc21)c1cccnc1 (stereo not drawn), the AC50 is reported as 0.0398 µM [falling, full curve, poor fit]. For COc1ccc(-c2cc(C(F)(F)F)n3nc(C)cc3n2)cc1, the AC50 was 12.6 µM [rising, partial curve]. With CCCNC(=O)N1CCN(S(=O)(=O)c2ccc(C)cc2)CC1 the AC50 was 0.631 µM [falling, full curve, poor fit]. With COc1ccc(-n2ccnc2SCC(=O)Nc2ccc(OC)cc2OC)cc1 the AC50 was 10 µM [rising, single point]. For O=c1c(-c2cc(F)cc(F)c2)nc2cnc(N3CCOCC3)nc2n1-c1ccccc1, the AC50 was 1.58 µM [rising, full curve]. With COc1cc(C(Nc2ccccn2)c2ccc3ccc(C)nc3c2O)cc(OC)c1O (stereo not drawn) the AC50 was 10 µM [falling, partial curve]. In the case of Cc1ccc(C(=O)c2cn[nH]c2-c2cc(Cl)ccc2O)cc1, the AC50 is reported as 5.01 µM [falling, full curve, poor fit]. For CCOc1ccc(Cc2nnc(N)s2)cc1OCC, the AC50 was 12.6 µM [rising, partial curve]. For COC(=O)c1ccccc1NC(=O)c1ccc(F)cc1, the AC50 was 7.94 µM [rising, partial curve]. For COc1ccc(N2CCN(C(=O)c3ccc(C)c(Cl)c3)CC2)cc1, the AC50 was 12.6 µM [rising, partial curve]. For CN(c1nc2c(c(=O)n(C)c(=O)n2C)n1CC(=O)c1ccccc1)C1CCCCC1, the AC50 was 10 µM [falling, single point]. In the case of COC(=O)c1ccccc1NC(=O)C1CCCN(c2nnc(-n3cccc3)s2)C1 (stereo not drawn), the AC50 is reported as 12.6 µM [rising, partial curve]. In the case of O=c1c(-c2ccc(Cl)cc2)nc2cnc(N3CCNCC3)nc2n1CCc1ccccc1, the AC50 is reported as 2.51 µM [rising, full curve]. In the case of CCOc1ccc(C(=O)N2CCN(c3cccc(C)c3C)CC2)cc1, the AC50 is reported as 0.0501 µM [rising, partial curve, poor fit]. In the case of CCCCC(=O)Nc1ncc(Br)s1, the AC50 is reported as 12.6 µM [falling, single point]. In the case of O=C(O)CCCn1nc(C(F)(F)F)c2c1CCCCC2, the AC50 is reported as 1.26 µM [rising, partial curve]. For O=c1c(-c2ccccc2)nc2cnc(N3CCOCC3)nc2n1CCc1ccccc1, the AC50 was 2.51 µM [rising, full curve]. For Cc1cc(OCC(=O)N2CCOCC2)cc2oc(=O)c3ccccc3c12, the AC50 was 10 µM [rising, partial curve]. In the case of COc1cc(NC(=O)CN(c2ccc(C)cc2)S(=O)(=O)c2c(C)nn(C)c2C)cc(OC)c1, the AC50 is reported as 25.1 µM [rising, single point]. With c1coc(CNc2ncnc3sc4c(c23)CCCCC4)c1 the AC50 was 15.8 µM [rising, single point]. With Cc1cc(C)nc(NS(=O)(=O)c2ccccc2)n1 the AC50 was 3.16 µM [falling, single point]. In the case of N#Cc1nc(Cc2cccc3ccccc23)oc1N1CCOCC1, the AC50 is reported as 10 µM [rising, single point]. With Cc1ccccc1N=C1NC(=O)CS1 the AC50 was 0.1 µM [falling, full curve]. In the case of COc1ccc(Cn2cccc(NC(=O)Nc3ccc(C#N)cc3)c2=O)cc1, the AC50 is reported as 0.251 µM [rising, full curve, poor fit]. With CCNc1ncc2nc(-c3ccc(F)cc3)c(=O)n(CCOC)c2n1 the AC50 was 5.01 µM [rising, partial curve]. In the case of COc1ccccc1-n1c(SCC(=O)Nc2ccc3c(c2)OCO3)nc2c(c1=O)SCC2, the AC50 is reported as 25.1 µM [rising, single point]. For Cc1cccc(-n2ncc3c(N)ncnc32)c1, the AC50 was 12.6 µM [rising, single point]. For CN(C)S(=O)(=O)c1ccc(C(=O)Nc2ccccn2)cc1, the AC50 was 0.126 µM [falling, full curve]. For CC(C)C(OC(=O)c1ccco1)C(=O)NCc1ccccc1 (stereo not drawn), the AC50 was 0.501 µM [falling, full curve, poor fit]. With CN1CCCc2cc(C#N)c(=O)[nH]c21 the AC50 was 0.794 µM [rising, full curve]. With CC1=C(C#N)C(C)C2=C(CC(C)(C)CC2=O)N1 (stereo not drawn) the AC50 was 20 µM [rising, single point]. With O=C(CN1CCN(c2ccccn2)CC1)Nc1ccc2ccccc2c1 the AC50 was 3.98 µM [falling, full curve]. With COc1cc(OC)c(-c2nn3c(-c4ccncc4)nnc3s2)cc1OC the AC50 was 10 µM [rising, partial curve]. For COc1ccc(C(=O)Nc2nc(-c3cccs3)cs2)cc1, the AC50 was 25.1 µM [falling, single point]. With CC1=C(C(=O)OCc2ccccc2)C(c2ccc3ccccc3c2)NC(=O)N1CCCCCC(=O)O (stereo not drawn) the AC50 was 10 µM [rising, partial curve]. For Cc1c(C(=O)OC2CCC(C)CC2)[nH]c2c1C(=O)CCC2 (stereo not drawn), the AC50 was 10 µM [rising, partial curve]. In the case of Clc1ccc(-c2nc3nc4ccccc4nc3n2Cc2ccco2)cc1, the AC50 is reported as 12.6 µM [rising, single point]. With CCOC(=O)Cn1nnc(-c2cccc(OC)c2)n1 the AC50 was 0.01 µM [falling, full curve, poor fit]. With Nc1cc(Cl)ccc1Oc1ccccc1 the AC50 was 0.00794 µM [falling, full curve, poor fit]. For Cn1c(C(=O)NC2CCCC2)cc2c(=O)n(C)c3ccccc3c21, the AC50 was 5.01 µM [rising, partial curve]. In the case of CSc1nnc2c(n1)OC(C)N(C(=O)c1ccccc1)c1ccccc1-2 (stereo not drawn), the AC50 is reported as 0.0794 µM [falling, full curve]. In the case of O=C(Nc1ccccc1Oc1ccccc1)c1ccc(Br)o1, the AC50 is reported as 1 µM [rising, partial curve].
